No constants are given. Whether binding was seen depends on the method and setting. For some of these results: Binding seen in cells or lysates may run through a third protein. Some binding calls cover weakened binding; strength is not graded here.
T1: RANKL (TNFSF11) expressed on HEK293 cells (human) (UniProt O14788)
T1 sequence: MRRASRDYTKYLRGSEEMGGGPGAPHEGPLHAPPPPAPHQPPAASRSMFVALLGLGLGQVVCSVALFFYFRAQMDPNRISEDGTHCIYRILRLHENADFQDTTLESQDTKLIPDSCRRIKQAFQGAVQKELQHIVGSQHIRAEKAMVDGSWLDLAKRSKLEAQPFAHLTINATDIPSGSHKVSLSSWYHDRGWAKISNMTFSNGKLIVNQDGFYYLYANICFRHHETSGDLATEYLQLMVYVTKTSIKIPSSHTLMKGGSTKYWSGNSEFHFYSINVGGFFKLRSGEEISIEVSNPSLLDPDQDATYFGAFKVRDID

Protein sequences, listed by entry. Tags and fused reporters are not part of them. Residues count along the entry.
UniProt P25445, residues 26-335: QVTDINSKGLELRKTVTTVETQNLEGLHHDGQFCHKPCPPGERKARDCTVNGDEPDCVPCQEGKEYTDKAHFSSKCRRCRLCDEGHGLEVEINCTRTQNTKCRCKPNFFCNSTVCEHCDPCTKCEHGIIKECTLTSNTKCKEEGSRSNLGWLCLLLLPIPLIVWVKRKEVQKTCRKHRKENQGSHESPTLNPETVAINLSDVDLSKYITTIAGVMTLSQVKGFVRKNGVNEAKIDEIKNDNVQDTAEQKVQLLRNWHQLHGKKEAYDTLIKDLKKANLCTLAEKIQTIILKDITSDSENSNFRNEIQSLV
UniProt P17677: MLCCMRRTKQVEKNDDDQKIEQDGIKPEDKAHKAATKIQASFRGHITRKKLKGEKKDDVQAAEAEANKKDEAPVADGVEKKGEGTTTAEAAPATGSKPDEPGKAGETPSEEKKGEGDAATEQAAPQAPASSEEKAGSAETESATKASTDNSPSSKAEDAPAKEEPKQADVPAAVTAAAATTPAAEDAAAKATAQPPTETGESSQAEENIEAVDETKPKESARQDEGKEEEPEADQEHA
UniProt O60235: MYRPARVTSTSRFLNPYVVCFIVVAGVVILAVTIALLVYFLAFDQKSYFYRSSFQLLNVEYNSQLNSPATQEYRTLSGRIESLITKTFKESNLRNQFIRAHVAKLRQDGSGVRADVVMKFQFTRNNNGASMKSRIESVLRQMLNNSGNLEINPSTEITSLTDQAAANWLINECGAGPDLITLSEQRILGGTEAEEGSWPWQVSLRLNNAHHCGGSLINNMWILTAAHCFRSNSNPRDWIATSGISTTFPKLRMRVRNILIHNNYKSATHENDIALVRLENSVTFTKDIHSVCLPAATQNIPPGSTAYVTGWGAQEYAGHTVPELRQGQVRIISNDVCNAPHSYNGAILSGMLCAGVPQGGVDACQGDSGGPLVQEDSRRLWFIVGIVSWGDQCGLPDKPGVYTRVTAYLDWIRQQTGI
UniProt Q9NPH3, residues 21-570: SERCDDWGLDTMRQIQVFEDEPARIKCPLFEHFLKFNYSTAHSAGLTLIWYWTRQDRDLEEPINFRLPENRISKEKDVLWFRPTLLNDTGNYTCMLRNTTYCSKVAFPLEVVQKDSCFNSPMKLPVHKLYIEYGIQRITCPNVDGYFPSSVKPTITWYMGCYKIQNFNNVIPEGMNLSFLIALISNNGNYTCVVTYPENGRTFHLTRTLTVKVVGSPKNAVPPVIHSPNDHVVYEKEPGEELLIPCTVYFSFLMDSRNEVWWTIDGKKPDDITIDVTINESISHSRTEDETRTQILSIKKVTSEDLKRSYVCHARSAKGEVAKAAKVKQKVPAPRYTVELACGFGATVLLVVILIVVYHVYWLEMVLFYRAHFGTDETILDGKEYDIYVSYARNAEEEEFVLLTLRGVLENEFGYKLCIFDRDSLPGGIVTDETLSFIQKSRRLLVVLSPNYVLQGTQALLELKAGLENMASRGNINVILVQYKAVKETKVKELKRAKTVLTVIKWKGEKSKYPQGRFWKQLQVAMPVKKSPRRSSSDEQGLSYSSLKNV

T2: syndecan-1 (SDC-1) expressed on HEK293 cells (human) (UniProt P18827)
T2 sequence: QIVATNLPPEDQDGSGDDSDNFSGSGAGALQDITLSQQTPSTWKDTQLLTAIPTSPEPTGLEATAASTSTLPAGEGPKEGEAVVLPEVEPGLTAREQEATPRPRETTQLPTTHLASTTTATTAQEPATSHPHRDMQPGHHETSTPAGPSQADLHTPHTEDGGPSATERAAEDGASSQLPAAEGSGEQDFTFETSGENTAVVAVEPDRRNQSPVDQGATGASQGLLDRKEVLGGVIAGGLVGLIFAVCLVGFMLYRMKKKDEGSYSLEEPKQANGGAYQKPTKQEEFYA


What was measured:
[1] = target: T1, RANKL (TNFSF11) expressed on HEK293 cells (human); experiment: reverse transfection cell microarray (Retrogenix); HEK293 cells reverse transfected with expression vectors for one of 2505 human plasma membrane proteins; cells treated with 0.5 ug/ml rhOPG (Peprotech), 0.5 ug/ml anti-OPG, then Alexafluor647 anti-goat antibody; primary and secondary screens; only the binder purified
[2] = target: Fas receptor expressed on HEK293 cells (human) (UniProt P25445); experiment: as above
[3] = target: growth associated protein 43 (GAP43) expressed in HEK293 cells (human) (UniProt P17677); experiment: as above
[4] = target: T2, syndecan-1 (SDC-1) expressed on HEK293 cells (human); experiment: as above
[5] = target: transmembrane protease, serine 11D (TMPRSS11D) expressed on HEK293 cells (human) (UniProt O60235); experiment: as above
[6] = target: IL1-receptor accessory protein (IL-1RAcP) expressed on HEK293 cells (human) (UniProt Q9NPH3); experiment: as above
[7] = target: Fas receptor, endogenous in human pulmonary artery smooth muscle cells (human (endogenous in PASMC)) (UniProt P25445); experiment: co-IP; PASMCs stimulated with rhOPG (500 ng/ml) for 30 min at 37 C, lysed; anti-Fas antibody, ProteinG sepharose beads; blot with goat polyclonal anti-OPG; only the binder purified

| binding [1] | binding [2] | binding [3] | binding [4] | binding [5] | binding [6] | binding [7] | Binder |
| --- | --- | --- | --- | --- | --- | --- | --- |
| binds | binds | binds | binds | binds | binds | – | recombinant human osteoprotegerin (rhOPG, Peprotech) (protein, UniProt O00300 22-401) ETFPPKYLHYDEETSHQLLCDKCPPGTYLKQHCTAKWKTVCAPCPDHYYTDSWHTSDECLYCSPVCKELQYVKQECNRTHNRVCECKEGRYLEIEFCLKHRSCPPGFGVVQAGTPERNTVCKRCPDGFFSNETSSKAPCRKHTNCSVFGLLLTQKGNATHDNICSGNSESTQKCGIDVTLCEEAFFRFAVPTKFTPNWLSVLVDNLPGTKVNAESVERIKRQHSSQEQTFQLLKLWKHQNKDQDIVKKIIQDIDLCENSVQRHIGHANLTFEQLRSLMESLPGKKVGAEDIEKTIKACKPSDQILKLLSLWRIKNGDQDTLKGLMHALKHSKTYHFPKTVTQSLKKTIRFLHSFTMYKLYQKLFLEMIGNQVQSVKISCL |
| – | – | – | – | – | – | binds | recombinant human osteoprotegerin (rhOPG) of the co-immunoprecipitation and the cell assays (protein, UniProt O00300 22-401) ETFPPKYLHYDEETSHQLLCDKCPPGTYLKQHCTAKWKTVCAPCPDHYYTDSWHTSDECLYCSPVCKELQYVKQECNRTHNRVCECKEGRYLEIEFCLKHRSCPPGFGVVQAGTPERNTVCKRCPDGFFSNETSSKAPCRKHTNCSVFGLLLTQKGNATHDNICSGNSESTQKCGIDVTLCEEAFFRFAVPTKFTPNWLSVLVDNLPGTKVNAESVERIKRQHSSQEQTFQLLKLWKHQNKDQDIVKKIIQDIDLCENSVQRHIGHANLTFEQLRSLMESLPGKKVGAEDIEKTIKACKPSDQILKLLSLWRIKNGDQDTLKGLMHALKHSKTYHFPKTVTQSLKKTIRFLHSFTMYKLYQKLFLEMIGNQVQSVKISCL |

From article PMC6858314
